These are yes or no findings as the source states them, for the method shown. For some assays here: In cells and extracts the contact can be indirect. Some binding calls cover weakened binding; strength is not graded here. For some assays here: Tags and fused reporters may be left off the sequences shown.
What was measured:
[1] = biological target: Recombinant GST-Tagged β-catenin (UniProt P35222); assay: pull-down; GST-β-catenin preloaded on Glutathione-Sepharose 4B, equimolar 6xHis-FKBP52 added, 1.5 h at 4°C; 50 mM HEPES pH 7.4, 50 mM KCl, 10 mM MgCl2, 0.01% Tween 20, 1 mM DTT; Western blot; both purified
[2] = biological target: β-catenin (endogenous, LNCaP) (human (endogenous in LNCaP)) (UniProt P35222); assay: co-IP; LNCaP lysates (RIPA buffer), anti-β-catenin antibody and protein A/G agarose, blots for AR and FKBP52; cells with or without 10 nM DHT and FKBP52 siRNA

By UniProt entry, the sequences of proteins in these tests, tags left out.
UniProt P35222: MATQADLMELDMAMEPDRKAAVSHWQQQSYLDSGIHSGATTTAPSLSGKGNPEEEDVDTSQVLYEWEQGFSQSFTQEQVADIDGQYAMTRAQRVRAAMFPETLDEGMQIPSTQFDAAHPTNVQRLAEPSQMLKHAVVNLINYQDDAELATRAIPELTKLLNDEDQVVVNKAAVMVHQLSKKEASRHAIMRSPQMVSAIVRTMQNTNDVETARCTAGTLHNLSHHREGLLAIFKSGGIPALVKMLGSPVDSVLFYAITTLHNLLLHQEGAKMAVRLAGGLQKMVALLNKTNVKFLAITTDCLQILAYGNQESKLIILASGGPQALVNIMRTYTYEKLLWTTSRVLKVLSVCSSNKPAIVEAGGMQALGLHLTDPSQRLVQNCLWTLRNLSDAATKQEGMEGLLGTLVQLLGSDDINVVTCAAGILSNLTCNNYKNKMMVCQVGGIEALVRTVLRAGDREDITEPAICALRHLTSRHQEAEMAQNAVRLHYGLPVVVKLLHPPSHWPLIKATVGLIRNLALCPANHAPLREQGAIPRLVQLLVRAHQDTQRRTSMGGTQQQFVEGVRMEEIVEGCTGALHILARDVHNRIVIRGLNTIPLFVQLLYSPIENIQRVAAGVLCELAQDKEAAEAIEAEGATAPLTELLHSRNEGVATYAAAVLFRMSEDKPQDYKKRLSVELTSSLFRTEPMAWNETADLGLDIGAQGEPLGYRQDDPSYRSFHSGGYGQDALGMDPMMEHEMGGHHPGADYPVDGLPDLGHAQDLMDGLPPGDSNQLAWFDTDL

Binder	binding [1]	binding [2]
recombinant C-terminal 6xhistidine-tagged FKBP52 protein (protein, UniProt Q02790 1-459) MTAEEMKATESGAQSAPLPMEGVDISPKQDEGVLKVIKREGTGTEMPMIGDRVFVHYTGWLLDGTKFDSSLDRKDKFSFDLGKGEVIKAWDIAIATMKVGEVCHITCKPEYAYGSAGSPPKIPPNATLVFEVELFEFKGEDLTEEEDGGIIRRIQTRGEGYAKPNEGAIVEVALEGYYKDKLFDQRELRFEIGEGENLDLPYGLERAIQRMEKGEHSIVYLKPSYAFGSVGKEKFQIPPNAELKYELHLKSFEKAKESWEMNSEEKLEQSTIVKERGTVYFKEGKYKQALLQYKKIVSWLEYESSFSNEEAQKAQALRLASHLNLAMCHLKLQAFSAAIESCNKALELDSNNEKGLFRRGEAHLAVNDFELARADFQKVLQLYPNNKAAKTQLAVCQQRIRRQLAREKKLYANMFERLAEEENKAKAEASSGDHPTDTEMKEEQKSNTAGSQSQVETEA	binds	
FKBP52 (endogenous, LNCaP) (protein, UniProt Q02790 1-459) MTAEEMKATESGAQSAPLPMEGVDISPKQDEGVLKVIKREGTGTEMPMIGDRVFVHYTGWLLDGTKFDSSLDRKDKFSFDLGKGEVIKAWDIAIATMKVGEVCHITCKPEYAYGSAGSPPKIPPNATLVFEVELFEFKGEDLTEEEDGGIIRRIQTRGEGYAKPNEGAIVEVALEGYYKDKLFDQRELRFEIGEGENLDLPYGLERAIQRMEKGEHSIVYLKPSYAFGSVGKEKFQIPPNAELKYELHLKSFEKAKESWEMNSEEKLEQSTIVKERGTVYFKEGKYKQALLQYKKIVSWLEYESSFSNEEAQKAQALRLASHLNLAMCHLKLQAFSAAIESCNKALELDSNNEKGLFRRGEAHLAVNDFELARADFQKVLQLYPNNKAAKTQLAVCQQRIRRQLAREKKLYANMFERLAEEENKAKAEASSGDHPTDTEMKEEQKSNTAGSQSQVETEA		binds
